Experimental data as given in patent publication US9416353B2, “Covalent tethering of functional groups to proteins and substrates therefor” (Promega Corporation, priority 2004, dated 2016).
Positions count from the first letter of the chain named. Names and notes keep the numbering of the source. Some of these results come from one statement about several compounds together.

Columns and labels:
[1] = Precipitation of DhaA.WT and mutants with (NH4)2SO4; assay type: physicochemical; conditions: 2 hours, 4° C.
Procedure: Aliquots of the supernatant obtained from E. coli expressing DhaA (WT or one of the mutants) were treated with increasing concentrations of (NH4)2SO4. The proteins were exposed to each (NH4)2SO4 concentration for 2 hours (4° C.), pelleted by centrifugation, dialyzed overnight against buffer A, and resolved on SDS-PAGE.

[2] = 25 μM biotin substrate, 60 minutes; SA-coated plate 1 hour
[3] = assay type: binding; conditions: time points 2 and 30 minutes

B1: DhaA.H272F: DhaA mutant, catalytic His272 replaced with Phe (protein, UniProt P0A3G2 1-293, looked up, variant H272F)
Haloalkane dehalogenase: MSEIGTGFPFDPHYVEVLGERMHYVDVGPRDGTPVLFLHGNPTSSYLWRNIIPHVAPSHRCIAPDLIGMGKSDKPDLDYFFDDHVRYLDAFIEALGLEEVVLVIHDWGSALGFHWAKRNPERVKGIACMEFIRPIPTWDEWPEFARETFQAFRTADVGRELIIDQNAFIEGALPKCVVRPLTEVEMDHYREPFLKPVDREPLWRFPNELPIAGEPANIVALVEAYMNWLHQSPVPKLLFWGTPGVLIPPAEAARLAESLPNCKTVDIGPGLFYLQEDNPDLIGSEIARWLPAL
(NH4)2SO4 concentration that precipitates the protein [1]: 45-70%

B2: R.Luc-connector-DhaA.WT: fusion of Renilla luciferase, a 17 amino acid connector and DhaA.WT (protein)
chain: SGSSLRYRGPSRAVDAAMSEIGTGFPFDPHYVEVLGERMHYVDVGPRDGTPVLFLHGNPTSSYLWRNIIPHVAPSHRCIAPDLIGMGKSDKPDLDYFFDDHVRYLDAFIEALGLEEVVLVIHDWGSALGFHWAKRNPERVKGIACMEFIRPIPTWDEWPEFARETFQAFRTADVGRELIIDQNAFIEGALPKCVVRPLTEVEMDHYREPFLKPVDREPLWRFPNELPIAGEPANIVALVEAYMNWLHQSPVPKLLFWGTPGVLIPPAEAARLAESLPNCKTVDIGPGLHYLQEDNPDLIGSEIARWLPALTGDYKDDDDK
modifications: left off: large carriers
notes: fusion of Renilla luciferase, a 17 amino acid connector and DhaA.WT
efficiency of capturing (Renilla luciferase activity added to the plate captured) [2]: < 0.1%

B3: DhaA.H272F YL: DhaA.H272F based mutant with Y273L (protein, UniProt P0A3G2 1-293, looked up, variant H272F Y273L)
Haloalkane dehalogenase: B1 Haloalkane dehalogenase with Y273L
time by which labeling appeared to be complete [3]: ≤ 2 min
